The target in test [1] is Sgo1_(1–415) (human). Kind of test: cross-linking; EDC (zero-length) with N-hydroxysulfosuccinimide on the gel-filtrated CPC-Sgo1 1-415 complex, 25 mM Hepes pH 6.8, 150 mM NaCl, 1 h 30 min at room temperature; mass spectrometry (CLMS), 1% link-level FDR; both purified.
Test [2] has as its target Sgo1_(130–280 4A)-LacI-GFP (human). Kind of test: LacO-LacI tethering assay (immunofluorescence); Sgo1-LacI-GFP fusions tethered to a LacO array in U-2 OS-LacO Haspin CM cells (S-trityl-L-cysteine overnight); recruitment of endogenous Aurora B and Borealin or of Survivin-mCherry to the LacO foci, intensity over GFP.
For test [3], the target named is Sgo1_(274–415)-LacI-GFP (human). The test is described as above.
Test [4] has as its target Sgo1_(159–240 4A)-LacI-GFP (human). The description is as above.
For test [5], the target named is Sgo1_(130–280)-LacI-GFP (human). The test is described as above.
In test [6] the target is Sgo1_(1–130)-LacI-GFP (human). Described as above.
Test [7] deals with Sgo1_(159–240)-LacI-GFP (human). Described as above.
In test [8] the target is Sgo1_(415–527)-LacI-GFP (human). Described as above.
The target of test [9] is Sgo1_(1–527)-LacI-GFP (human). The test is described as above.

Results are given in words; binding and its absence hold for the method and conditions named. For part of these data: Binding can be weak; no strength is given.

B1: Borealin_(10–280) (domain or fragment, UniProt Q53HL2 10-280)
chain: VAKTNSLRRRKLASFLKDFDREVEIRIKQIESDRQNLLKEVDNLYNIEILRLPKALREMNWLDYFALGGNKQALEEAATADLDITEINKLTAEAIQTPLKSAKTRKVIQVDEMIVEEEEEEENERKNLQTARVKRCPPSKKRTQSIQGKGKGKRSSRANTVTPAVGRLEVSMVKPTPGLTPRFDSRVFKTPGLRTPAAGERIYNISGNGSPLADSKEIFLTVPVGGGESLRLLASDLQRHSIAQLDPEALGNIKKLSNRLAQICSSIRTHK
As to B1, the binding entry in [1] is “binds”.

B2: Borealin (endogenous) (protein, UniProt Q53HL2 1-280)
chain: MAPRKGSSRVAKTNSLRRRKLASFLKDFDREVEIRIKQIESDRQNLLKEVDNLYNIEILRLPKALREMNWLDYFALGGNKQALEEAATADLDITEINKLTAEAIQTPLKSAKTRKVIQVDEMIVEEEEEEENERKNLQTARVKRCPPSKKRTQSIQGKGKGKRSSRANTVTPAVGRLEVSMVKPTPGLTPRFDSRVFKTPGLRTPAAGERIYNISGNGSPLADSKEIFLTVPVGGGESLRLLASDLQRHSIAQLDPEALGNIKKLSNRLAQICSSIRTHK
In the case of B2, the binding result in [2] is “no binding”; in test [3], “no binding”; in test [4], “no binding”; in test [5] it was “binds”; in test [6] it was “binds”; in test [7], “binds”. In addition, the binding entry in test [8] is “no binding”; in test [9], “binds”.
